Assay results from US8815499B2, “In situ detoxification of fermentation inhibitors with reducing agents” (priority 2009, dated 2014).

Columns and labels:
[1] = test system: yeast Saccharomyces cerevisiae; assay: Simultaneous saccharification and fermentation (SSF) of sugarcane bagass slurry; format: cell-based; conditions: 7.5 and 10 mM
[2] = acid spruce hydrolysate
[3] = NH4OH detoxification pH 9, 55° C., 3 h

In the case of `O=S([O-])[O-].[Na+].[Na+]` [Sulphite, sodium sulphite], the Formation of precipitates [1] is reported as “did not lead to any formation of precipitates”.

For `N` [NH4OH, ammonium hydroxide, reference compound], the Glucose concentration [2, 3] was 17.7 g/L, the Mannose concentration [2, 3] was 14.2 g/L and the Phenolic compounds concentration [2, 3] was 2.5 g/L. It also gave a Xylose concentration [2, 3] of 6.8 g/L.

`O=S([O-])S(=O)[O-].[Na+].[Na+]` [Dithionite, Sodium dithionite] gave a Glucose concentration ([2]; 2.5 mM) of 18.3 g/L, a Mannose concentration ([2]; 2.5 mM) of 14.9 g/L and a Phenolic compounds concentration ([2]; 2.5 mM) of 2.9 g/L. For the same compound, the Xylose concentration ([2]; 2.5 mM) was 6.6 g/L, the Glucose concentration ([2]; 5.0 mM) was 18.7 g/L and the Mannose concentration ([2]; 5.0 mM) was 14.7 g/L. It also gave a Phenolic compounds concentration ([2]; 5.0 mM) of 2.9 g/L, a Xylose concentration ([2]; 5.0 mM) of 6.6 g/L and a Glucose concentration ([2]; 7.5 mM) of 18.8 g/L. The Mannose concentration ([2]; 7.5 mM) was 14.8 g/L, the Phenolic compounds concentration ([2]; 7.5 mM) was 2.9 g/L and the Xylose concentration ([2]; 7.5 mM) was 6.7 g/L. It also gave a Glucose concentration ([2]; 10.0 mM) of 18.1 g/L, a Mannose concentration ([2]; 10.0 mM) of 14.9 g/L and a Phenolic compounds concentration ([2]; 10.0 mM) of 2.8 g/L. The Xylose concentration ([2]; 10.0 mM) was 6.5 g/L, the Glucose concentration ([2]; 12.5 mM) was 18.1 g/L and the Mannose concentration ([2]; 12.5 mM) was 14.7 g/L. For the same compound, the Phenolic compounds concentration ([2]; 12.5 mM) was 2.9 g/L, the Xylose concentration ([2]; 12.5 mM) was 6.4 g/L and the Glucose concentration ([2]; 15.0 mM) was 18.3 g/L. The Mannose concentration ([2]; 15.0 mM) was 14.7 g/L, the Phenolic compounds concentration ([2]; 15.0 mM) was 2.8 g/L and the Xylose concentration ([2]; 15.0 mM) was 6.4 g/L. For the same compound, the Formation of precipitates [1] was “did not lead to any formation of precipitates”.

Read-outs that look alike come from different tables or passages of the source.
